For 30 sequences, z-score results are on record in PubChem BioAssay AID1508600 (Functional Genomics Laboratory (NCATS/FGL), 2020).

Among all 53,000 sequences or so, about 3,700 (7%) were called active.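 Rule for the calls: active = gene knockdowns whose robust z-score for IL-1 alpha signal is at least 2 or at most -2, so actives lie on both sides; inactive = the rest.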 This is one part of the list.

This experiment can be described thus: Components of the Cytosolic LPS Sensing Pathway: Gene Identification via Genome-wide siRNA Screen.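 Note: robust z of the log signal after scaling to non-targeting control siRNA wells of the plate.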 Particulars: RAW264.7 macrophages, IL-1a HTRF, actives lie on both sides, screened at 100 nM (by protocol), cells primed 5 h with Pam3CSK4 first. The method, boiled down:
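Three distinct siRNAs per gene were tested singly at 100 nM in RAW264.7 macrophages. Following Pam3CSK4 priming and 24 hour LipidA transfection, IL-1a secretion was read by HTRF.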
For orientation: In TR-FRET formats the signal depends on donor and acceptor labels being close together.
Take CCUUUGUCCUUUUGUUGUGTT against Defb15: the z-score is inactive: 0.867.

As to CCUUGAAGUAUCAGGUGGATT against Sytl3, the z-score was inactive: 0.561.

In the case of GGAGAUUGACCUGGUCAACTT against Cav1, the z-score is inactive: 1.44.

Take GGGACAAUGCUGUCAUUGATT against Noxa1: the z-score is inactive: -0.222.

Consider GGAGACGAGUCACAUCUCATT against Cables2, for which the z-score was inactive: -0.287.

On to GCCCGUUCCACUUUUGGAGTT against Nedd1, for which the z-score is active: 2.2.

Regarding GGGUCAGGAGGAAAAAAAATT against Reps1, the z-score was inactive: -1.56.

Take CCCUGUAAGGACCAAUAAATT against Dact1: the z-score was inactive: -0.000857.

For the sequence GGAAAGGACUGGAAGAAUUTT against Mrpl47, the z-score is inactive: -0.693.

As for CCUAGUUGAUACCUGUGGUTT against Cd302, the z-score is inactive: -1.34.

For the sequence GGAAAACAAGAAAGAUGAATT against Snupn, the z-score was inactive: -1.05.

Consider GGACCAGUUGUAAAUGUUATT against Hoxd9, for which the z-score is inactive: -0.578.

Take GGUUUUCAGUACAUCCUGGTT against Cryba4: the z-score was inactive: 0.183.

Take GGUGGCAAUGACAACUACUTT against Rnase4: the z-score was inactive: -0.495.

In the case of GGACAAAAUUGAACACAAGTT against Pogz, the z-score is active: 2.86.

Consider CGAUCAAAGAACCUGAAAGTT against Sidt1, for which the z-score was inactive: -1.76.

For GGUUAUGAGGCUUAAUAAATT against Atxn7l1, the z-score was inactive: 0.965.

Turning to GGAAGAAUUGGGUGUAGUGTT against L1cam, the z-score is inactive: -0.426.

GGUGGCUCUGGUUAAACUCTT against Atmin: the z-score is inactive: 1.18.

Regarding GGAAAUCGGCAAUCUGAAGTT against Lrrc1, the z-score was inactive: 0.523.

For the sequence GGACAGGUUCGAGUCAACATT against Acan, the z-score was inactive: 0.435.

As for CCAUUUAUAUCAGGCAUCATT against Lrit1, the z-score was inactive: -0.647.

As to GGAAAAGUAUUGGUAGACGTT against Steap4, the z-score is inactive: -1.73.

For GUCCCACUGUCCAGUUACATT against Gm9946, the z-score was inactive: -0.565.

For CCUUAGACCCAAUAACUUUTT against Nrxn1, the z-score was inactive: 0.595.

Turning to GCCCUCCUGUGAGUUUCUCTT against Mgme1, the z-score was inactive: -0.564.

Consider CCUUAUCUUAAUGAUCUCCTT against Mc5r, for which the z-score was inactive: -0.54.

On to GGGAAUGCAAUGGUUUGUGTT against Ocm, for which the z-score is inactive: 0.0293.

With GGGAUUAGAGACUGUCAUUTT against Nudt9, the z-score is inactive: -0.354.

Turning to CCCUGGUUCUAUGACUUAATT against Cers2, the z-score was inactive: -1.12.
